Test results reported in the supplement of paper PMC12067093, “Discovery and optimisation of a covalent ligand for TRIM25 and its application to targeted protein ubiquitination” (Chemical Science, 2025).
Some of the results follow.

The chains behind the UniProt entries cited, without tags or fusion partners. Where a name states a change or a piece, a line headed by the entry shows the natural chain unless it says otherwise.
UniProt O60832: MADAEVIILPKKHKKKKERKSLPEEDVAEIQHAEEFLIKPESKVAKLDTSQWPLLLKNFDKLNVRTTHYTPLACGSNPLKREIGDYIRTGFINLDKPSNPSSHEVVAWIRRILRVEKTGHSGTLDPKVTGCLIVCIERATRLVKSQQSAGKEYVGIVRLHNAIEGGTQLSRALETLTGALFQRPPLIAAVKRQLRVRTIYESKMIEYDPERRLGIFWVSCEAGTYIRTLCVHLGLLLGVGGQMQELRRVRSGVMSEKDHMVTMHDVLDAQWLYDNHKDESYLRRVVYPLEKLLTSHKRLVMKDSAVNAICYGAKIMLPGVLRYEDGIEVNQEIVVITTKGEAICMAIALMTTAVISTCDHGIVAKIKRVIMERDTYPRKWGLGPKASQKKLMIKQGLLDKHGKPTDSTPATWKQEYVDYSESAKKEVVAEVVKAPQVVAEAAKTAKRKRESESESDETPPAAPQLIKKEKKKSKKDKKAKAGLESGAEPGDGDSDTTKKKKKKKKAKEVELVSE
UniProt Q9NW81: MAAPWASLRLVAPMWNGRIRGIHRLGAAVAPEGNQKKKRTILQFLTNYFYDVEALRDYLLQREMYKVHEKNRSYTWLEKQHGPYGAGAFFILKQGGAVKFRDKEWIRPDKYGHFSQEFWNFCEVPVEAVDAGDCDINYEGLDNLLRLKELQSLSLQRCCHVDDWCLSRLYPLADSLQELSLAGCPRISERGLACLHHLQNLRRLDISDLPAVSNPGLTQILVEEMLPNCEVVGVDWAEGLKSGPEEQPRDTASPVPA
UniProt Q9Y2L1: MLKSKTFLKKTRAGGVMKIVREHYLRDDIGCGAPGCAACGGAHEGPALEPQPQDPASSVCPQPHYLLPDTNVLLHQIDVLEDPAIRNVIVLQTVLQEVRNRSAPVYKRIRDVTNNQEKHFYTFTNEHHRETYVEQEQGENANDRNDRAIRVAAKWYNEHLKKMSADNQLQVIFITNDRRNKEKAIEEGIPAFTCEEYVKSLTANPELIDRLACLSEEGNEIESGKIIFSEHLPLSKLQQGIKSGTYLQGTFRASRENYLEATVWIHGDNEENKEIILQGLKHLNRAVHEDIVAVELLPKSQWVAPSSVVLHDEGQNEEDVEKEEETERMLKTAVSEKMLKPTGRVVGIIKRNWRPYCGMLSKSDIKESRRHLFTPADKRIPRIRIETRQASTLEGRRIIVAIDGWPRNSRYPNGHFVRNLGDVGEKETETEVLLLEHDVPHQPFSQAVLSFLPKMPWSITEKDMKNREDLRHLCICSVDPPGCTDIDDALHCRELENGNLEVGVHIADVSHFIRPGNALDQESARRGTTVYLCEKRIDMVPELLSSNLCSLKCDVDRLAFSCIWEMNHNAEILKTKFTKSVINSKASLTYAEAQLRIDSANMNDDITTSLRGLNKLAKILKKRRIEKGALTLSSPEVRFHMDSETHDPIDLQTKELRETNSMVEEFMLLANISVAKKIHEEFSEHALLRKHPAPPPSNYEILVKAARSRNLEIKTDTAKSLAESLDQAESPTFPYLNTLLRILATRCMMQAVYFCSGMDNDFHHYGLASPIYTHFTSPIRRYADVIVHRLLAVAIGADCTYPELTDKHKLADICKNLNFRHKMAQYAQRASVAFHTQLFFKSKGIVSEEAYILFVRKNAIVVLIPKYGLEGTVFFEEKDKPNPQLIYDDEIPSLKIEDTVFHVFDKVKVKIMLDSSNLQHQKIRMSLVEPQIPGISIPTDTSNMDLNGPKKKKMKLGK
UniProt Q9BTC0, whole entry, looked up: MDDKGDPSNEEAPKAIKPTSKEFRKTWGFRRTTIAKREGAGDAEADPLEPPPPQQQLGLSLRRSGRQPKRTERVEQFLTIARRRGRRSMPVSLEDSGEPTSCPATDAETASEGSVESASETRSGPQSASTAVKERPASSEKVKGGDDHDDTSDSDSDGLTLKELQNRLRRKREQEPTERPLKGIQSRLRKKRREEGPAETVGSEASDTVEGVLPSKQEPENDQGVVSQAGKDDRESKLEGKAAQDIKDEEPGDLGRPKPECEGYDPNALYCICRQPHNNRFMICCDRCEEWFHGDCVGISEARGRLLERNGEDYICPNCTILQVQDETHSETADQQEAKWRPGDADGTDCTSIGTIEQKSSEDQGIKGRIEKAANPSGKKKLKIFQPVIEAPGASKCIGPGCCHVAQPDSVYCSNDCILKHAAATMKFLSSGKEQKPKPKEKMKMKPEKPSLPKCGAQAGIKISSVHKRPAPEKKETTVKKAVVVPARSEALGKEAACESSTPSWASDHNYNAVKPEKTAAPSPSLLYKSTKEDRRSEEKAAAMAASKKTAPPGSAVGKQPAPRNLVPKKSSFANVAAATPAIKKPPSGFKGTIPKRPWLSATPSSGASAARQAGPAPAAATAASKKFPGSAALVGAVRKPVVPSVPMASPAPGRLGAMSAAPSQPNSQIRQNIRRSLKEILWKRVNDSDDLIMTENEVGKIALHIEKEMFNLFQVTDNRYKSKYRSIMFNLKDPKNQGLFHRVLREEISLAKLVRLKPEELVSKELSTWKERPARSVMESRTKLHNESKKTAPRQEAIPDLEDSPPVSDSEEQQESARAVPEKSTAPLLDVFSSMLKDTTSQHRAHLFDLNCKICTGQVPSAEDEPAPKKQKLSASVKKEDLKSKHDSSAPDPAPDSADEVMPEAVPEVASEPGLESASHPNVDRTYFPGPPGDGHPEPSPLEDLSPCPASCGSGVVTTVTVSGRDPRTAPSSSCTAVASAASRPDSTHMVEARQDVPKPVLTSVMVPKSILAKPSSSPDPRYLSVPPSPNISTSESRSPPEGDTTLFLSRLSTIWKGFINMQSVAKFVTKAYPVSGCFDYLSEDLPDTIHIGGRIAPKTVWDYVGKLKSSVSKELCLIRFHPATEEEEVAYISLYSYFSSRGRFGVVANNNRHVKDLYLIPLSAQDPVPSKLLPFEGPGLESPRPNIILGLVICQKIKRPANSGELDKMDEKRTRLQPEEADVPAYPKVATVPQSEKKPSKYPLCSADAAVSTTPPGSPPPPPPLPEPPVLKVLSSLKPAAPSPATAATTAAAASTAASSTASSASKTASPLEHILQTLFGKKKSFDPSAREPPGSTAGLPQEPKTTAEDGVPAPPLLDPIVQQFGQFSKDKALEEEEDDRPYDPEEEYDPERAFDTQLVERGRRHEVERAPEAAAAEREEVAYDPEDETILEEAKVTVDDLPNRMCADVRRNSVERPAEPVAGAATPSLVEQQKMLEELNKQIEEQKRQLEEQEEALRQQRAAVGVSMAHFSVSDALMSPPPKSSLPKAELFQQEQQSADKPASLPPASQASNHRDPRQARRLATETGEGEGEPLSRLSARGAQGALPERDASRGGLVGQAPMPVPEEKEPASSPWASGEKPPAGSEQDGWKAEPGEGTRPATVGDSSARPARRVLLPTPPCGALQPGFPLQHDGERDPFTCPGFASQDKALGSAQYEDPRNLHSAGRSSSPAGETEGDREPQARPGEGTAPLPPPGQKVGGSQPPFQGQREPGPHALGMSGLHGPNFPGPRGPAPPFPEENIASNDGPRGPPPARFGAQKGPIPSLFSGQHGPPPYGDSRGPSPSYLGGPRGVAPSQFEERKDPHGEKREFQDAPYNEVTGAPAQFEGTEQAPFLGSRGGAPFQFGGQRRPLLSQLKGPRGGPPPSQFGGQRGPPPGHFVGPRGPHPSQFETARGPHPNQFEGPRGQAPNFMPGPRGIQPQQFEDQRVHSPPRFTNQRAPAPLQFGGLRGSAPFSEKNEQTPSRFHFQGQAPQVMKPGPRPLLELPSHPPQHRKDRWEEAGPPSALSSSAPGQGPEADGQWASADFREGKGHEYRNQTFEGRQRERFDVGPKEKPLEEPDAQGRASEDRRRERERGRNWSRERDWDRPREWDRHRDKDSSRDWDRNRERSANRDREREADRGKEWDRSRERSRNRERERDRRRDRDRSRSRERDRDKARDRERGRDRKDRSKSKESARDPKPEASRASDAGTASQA
UniProt Q14562: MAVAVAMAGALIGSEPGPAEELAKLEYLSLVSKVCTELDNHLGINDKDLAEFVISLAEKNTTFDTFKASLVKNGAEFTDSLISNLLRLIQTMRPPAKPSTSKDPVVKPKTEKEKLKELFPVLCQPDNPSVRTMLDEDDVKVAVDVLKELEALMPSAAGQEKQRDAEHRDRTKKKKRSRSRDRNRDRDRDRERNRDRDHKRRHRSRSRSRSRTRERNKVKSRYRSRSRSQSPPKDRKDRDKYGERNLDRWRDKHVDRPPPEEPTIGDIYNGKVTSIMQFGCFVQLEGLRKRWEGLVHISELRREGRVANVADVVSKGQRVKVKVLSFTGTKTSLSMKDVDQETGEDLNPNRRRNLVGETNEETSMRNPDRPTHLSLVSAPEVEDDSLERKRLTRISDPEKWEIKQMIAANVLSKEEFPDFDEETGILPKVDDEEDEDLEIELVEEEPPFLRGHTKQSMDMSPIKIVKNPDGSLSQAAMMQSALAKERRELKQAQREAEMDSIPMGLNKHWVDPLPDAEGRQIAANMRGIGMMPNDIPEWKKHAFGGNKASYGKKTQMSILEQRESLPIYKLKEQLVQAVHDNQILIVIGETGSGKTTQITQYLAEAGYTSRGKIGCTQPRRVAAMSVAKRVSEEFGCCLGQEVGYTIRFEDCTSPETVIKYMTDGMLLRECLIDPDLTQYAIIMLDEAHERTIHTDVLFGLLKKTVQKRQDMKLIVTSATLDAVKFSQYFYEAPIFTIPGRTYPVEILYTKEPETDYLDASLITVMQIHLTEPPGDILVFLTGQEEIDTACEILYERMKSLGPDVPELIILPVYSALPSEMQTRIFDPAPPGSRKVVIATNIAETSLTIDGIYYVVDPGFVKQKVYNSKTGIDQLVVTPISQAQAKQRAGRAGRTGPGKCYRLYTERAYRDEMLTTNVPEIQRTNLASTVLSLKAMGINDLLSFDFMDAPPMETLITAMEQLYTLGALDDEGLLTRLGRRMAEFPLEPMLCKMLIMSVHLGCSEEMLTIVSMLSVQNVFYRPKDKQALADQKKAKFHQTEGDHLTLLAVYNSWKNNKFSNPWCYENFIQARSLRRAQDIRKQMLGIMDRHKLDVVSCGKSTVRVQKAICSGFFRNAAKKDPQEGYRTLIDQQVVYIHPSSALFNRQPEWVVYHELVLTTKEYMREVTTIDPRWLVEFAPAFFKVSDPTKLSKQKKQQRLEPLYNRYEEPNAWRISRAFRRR
UniProt Q8IY37: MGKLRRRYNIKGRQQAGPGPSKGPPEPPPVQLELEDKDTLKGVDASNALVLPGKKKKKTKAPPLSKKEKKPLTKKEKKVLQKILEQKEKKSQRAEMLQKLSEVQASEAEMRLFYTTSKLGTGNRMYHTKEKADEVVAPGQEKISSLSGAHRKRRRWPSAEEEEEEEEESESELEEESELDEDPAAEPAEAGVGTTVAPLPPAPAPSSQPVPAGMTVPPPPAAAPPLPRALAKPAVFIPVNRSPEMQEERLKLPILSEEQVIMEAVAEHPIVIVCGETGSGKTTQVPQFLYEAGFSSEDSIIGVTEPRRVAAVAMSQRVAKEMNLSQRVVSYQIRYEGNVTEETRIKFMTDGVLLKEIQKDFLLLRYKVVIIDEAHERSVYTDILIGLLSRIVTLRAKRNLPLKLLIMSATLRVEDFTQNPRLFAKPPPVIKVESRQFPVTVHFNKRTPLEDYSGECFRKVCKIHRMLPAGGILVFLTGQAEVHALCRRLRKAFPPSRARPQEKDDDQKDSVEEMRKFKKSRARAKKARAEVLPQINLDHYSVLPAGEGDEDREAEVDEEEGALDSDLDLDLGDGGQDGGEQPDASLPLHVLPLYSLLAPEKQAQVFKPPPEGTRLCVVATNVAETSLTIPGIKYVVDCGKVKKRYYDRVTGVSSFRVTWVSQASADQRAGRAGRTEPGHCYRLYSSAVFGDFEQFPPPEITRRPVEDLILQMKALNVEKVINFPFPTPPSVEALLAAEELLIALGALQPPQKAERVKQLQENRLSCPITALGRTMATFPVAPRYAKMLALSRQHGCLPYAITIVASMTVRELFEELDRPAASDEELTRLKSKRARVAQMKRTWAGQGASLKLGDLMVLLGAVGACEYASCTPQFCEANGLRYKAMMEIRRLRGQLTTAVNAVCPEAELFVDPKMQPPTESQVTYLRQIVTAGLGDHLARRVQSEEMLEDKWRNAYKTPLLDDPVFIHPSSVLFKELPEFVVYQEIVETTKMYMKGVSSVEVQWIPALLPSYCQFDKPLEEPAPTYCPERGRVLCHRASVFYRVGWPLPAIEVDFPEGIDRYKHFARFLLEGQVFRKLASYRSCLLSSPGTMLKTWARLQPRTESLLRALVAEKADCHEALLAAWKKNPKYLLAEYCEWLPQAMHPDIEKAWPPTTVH
UniProt Q96GE9: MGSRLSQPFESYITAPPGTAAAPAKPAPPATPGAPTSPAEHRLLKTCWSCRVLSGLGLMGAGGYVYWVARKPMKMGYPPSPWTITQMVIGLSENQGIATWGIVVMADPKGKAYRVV

Compound: Cc1cc(ccc1-c1ccccc1)C(=O)N1CCCN(CC1)C(=O)CCl [compound 10]
Test: probe-labelled cysteine peptide fold change vs DMSO (competition) (log2 fold change); higher = less target engagement (more negative = stronger competition)
Conditions: THP-1, incubation time: 4 h
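Note: competitive profiling in live THP-1 cells: cysteine peptides tagged with an iodoacetamide desthiobiotin (IA-DTB) probe, intensity after compound treatment relative to DMSO-treated cells.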

Target	probe-labelled cysteine peptide fold change (10 µM)	probe-labelled cysteine peptide fold change (50 µM)
DHX15_O43143_190_GVACTQPR (UniProt O43143)	0.296	0.68
DHX15_O43143_774_IAPQYYDMSNFPQCEAK (UniProt O43143)	-0.0924	0.0483
DNAJA1_P31689_261_RGEDLFMCMDIQLVEALCGFQK (UniProt P31689)	0.326	0.324
DKC1_O60832_74_TTHYTPLACGSNPLK (UniProt O60832)	-0.00845	0.288
DHX57_Q6P158_221_MCDGDVGASLEHLLTQCFSETFGER (UniProt Q6P158)	-0.0821	-0.106
DHRS9_Q9BPW9_60_KGFHVIAACLTESGSTALK (UniProt Q9BPW9)	0.098	-0.134
DHX33_Q9H6R0_518_FHCTEEILTIVSLLSVDSVLHNPPSRR (UniProt Q9H6R0)	-0.0649	0.00512
DMAC2_Q9NW81_159_CCHVDDWCLSR (UniProt Q9NW81)	-0.0147	-0.197
DIS3L2_Q8IYB7_739_QADHCNDR (UniProt Q8IYB7)	0.0202	0.243
DLGAP5_Q15398_381_TIQQDSNKLPCPLGPLTVWHEEHVLNK (UniProt Q15398)	-0.0365	-0.701
DHX15_O43143_174_TTQIPQWCVEYMR (UniProt O43143)	0.0109	0.187
DNM2_P50570_607_QIELACDSQEDVDSWK (UniProt P50570)	-0.211	0.0551
DNM2_P50570-3_427_CVDLVVSELATVIKK (UniProt P50570)	0.333	0.424
DHX30_Q7L2E3_346_RPCTIQVPEPILR (UniProt Q7L2E3)	-0.647	-1.7
DIS3_Q9Y2L1_213_LACLSEEGNEIESGK (UniProt Q9Y2L1)	-0.105	0.00381
DIDO1_Q9BTC0_1449_MCADVR (UniProt Q9BTC0)	-0.296	-0.358
DIS3_Q9Y2L1_562_LAFSCIWEMNHNAEILK (UniProt Q9Y2L1)	0.248	-0.0681
DNAJA1_P31689_261_RGEDLFMCMDIQLVEALCGFQKPISTLDNR (UniProt P31689)	0.262	-0.27
DHX8_Q14562_637_VSEEFGCCLGQEVGYTIR (UniProt Q14562)	0.0281	0.569
DHX9_Q08211_1099_LQISHEAAACITGLR (UniProt Q08211)	0.136	0.171
DMAC2_Q9NW81_194_GLACLHHLQNLR (UniProt Q9NW81)	-0.215	0.722

Target	probe-labelled cysteine peptide fold change (10 µM)	probe-labelled cysteine peptide fold change (50 µM)
DLAT_P10515_291_DVPLGTPLCIIVEK (UniProt P10515)	0.111	0.148
DHX30_Q7L2E3_673_GEPGGILCFLPGWQEIK (UniProt Q7L2E3)	0.357	0.169
DNM2_P50570-3_427_CVDLVVSELATVIK (UniProt P50570)	0.029	0.263
DIAPH1_O60610_796_LVAEDLSQDCFWTK (UniProt O60610)	-0.0959	-0.0392
DHX15_O43143_226_FEDCSSAK (UniProt O43143)	-0.00866	0.0648
DMAC2_Q9NW81_184_LYPLADSLQELSLAGCPR (UniProt Q9NW81)	0.0158	-0.00166
DNAJA1_P31689_150+153_GAVECCPNCR (UniProt P31689)	-0.00131	-0.617
DHX58_Q96C10_322_TQILCAER (UniProt Q96C10)	-0.169	-0.332
DNMT1_P26358_580_HAQFVVEQVESYDEAGDSDEQPIFLTPCMR (UniProt P26358)	-0.0862	0.465
DKC1_O60832_310_DSAVNAICYGAK (UniProt O60832)	0.124	0.0135
DLEC1_Q9Y238_256_LEDSCR (UniProt Q9Y238)	0.773	1.66
DHX8_Q14562_1108_AICSGFFR (UniProt Q14562)	-0.267	0.29
DNAJA3_Q96EY1_236_EFTVNIMDTCER (UniProt Q96EY1)	-0.1	-0.195
DNM1L_O00429_505_HPDFADACGLMNNNIEEQR (UniProt O00429)	-0.477	-0.453
DIAPH1_O60610_964_LQFSEQVENIKPEIVSVTAACEELR (UniProt O60610)	-0.0771	0.26
DHX57_Q6P158_881_CVIHPLHSSLSSEEQQAVFVKPPAGVTK (UniProt Q6P158)	-0.00455	-0.0708
DHX37_Q8IY37_766_LSCPITALGR (UniProt Q8IY37)	-0.0307	-0.228
DNAJC13_O75165_2082_VIHALSENELCVR (UniProt O75165)	-0.0124	0.0936
DIS3_Q9Y2L1_483_HLCICSVDPPGCTDIDDALHCR (UniProt Q9Y2L1)	0.0361	-0.104
DHX36_Q9H2U1_234_ELVNLIDNHQVTVISGETGCGK (UniProt Q9H2U1)	0.173	0.0357
DHX37_Q8IY37_1116_ADCHEALLAAWK (UniProt Q8IY37)	-0.0208	0.00559

Target	probe-labelled cysteine peptide fold change (10 µM)	probe-labelled cysteine peptide fold change (50 µM)
DKK2_Q9UBU2_214_ICKPVLHQGEVCTK (UniProt Q9UBU2)	-0.0653	-0.0474
DIDO1_Q9BTC0_350_WRPGDADGTDCTSIGTIEQK (UniProt Q9BTC0)	-0.22	0.0275
DNAJA4_Q8WW22_272_IQLSEALCGFKK (UniProt Q8WW22)	-0.0485	-0.0843
DNM1L_O00429_431_CVELVHEEMQR (UniProt O00429)	-0.0261	0.0516
DHX9_Q08211_242_KLAAQSCALSLVR (UniProt Q08211)	0.0869	-0.183
DNASE2_O00115_299_WCVSPK (UniProt O00115)	-0.0787	-0.233
DNAJC13_O75165_2181_SLQYGEQVNEILCR (UniProt O75165)	0.0495	0.24
DKC1_O60832_220_LGIFWVSCEAGTYIR (UniProt O60832)	-0.256	0.815
DMXL2_Q8TDJ6_2880_NVCLWDTLISPGNSLIHGFTCHDHGATVLQYAPK (UniProt Q8TDJ6)	0.129	0.268
DNAJC7_Q99615_7_AAAAECDVVMAATEPELLDDQEAKR (UniProt Q99615)	-0.244	-0.523
DHRS7_Q9Y394_172_CVLPHMIER (UniProt Q9Y394)	-0.0215	-0.0909
DNAJC13_O75165_12_DLACFYTTK (UniProt O75165)	-0.0878	0.0962
DHX38_Q92620_1028_NNNYSTIWCNDHFIHAK (UniProt Q92620)	-0.113	0.169
DNAJC11_Q9NVH1_494_VIDVTVPLQCLVK (UniProt Q9NVH1)	0.174	0.226
DHX36_Q9H2U1_611_VQPGHCYHLYNGLR (UniProt Q9H2U1)	0.158	-0.0716
DHX15_O43143_190_RGVACTQPR (UniProt O43143)	-0.0431	0.0597
DNM1L_O00429_361_YIETSELCGGAR (UniProt O00429)	-0.306	-0.295
DHX16_O60231_37_CTSAEEFVQR (UniProt O60231)	0.138	0.182
DHX15_O43143_774_IAPQYYDMSNFPQCEAKR (UniProt O43143)	-0.196	-0.633
DIAPH2_O60879_283_ILSAICIVGEENILDK (UniProt O60879)	0.315	0.034
DMAC1_Q96GE9_50_TCWSCR (UniProt Q96GE9)	-0.133	0.143

Target	probe-labelled cysteine peptide fold change (10 µM)	probe-labelled cysteine peptide fold change (50 µM)
DNMT1_P26358_353+356_CIQCGQYLDDPDLK (UniProt P26358)	0.138	-0.0723
DNAJC2_Q99543_26_GTAITHALTSASTLCQVEPVGR (UniProt Q99543)	-0.0409	-0.201
DIS3L_Q8TF46_962_CHSDTIR (UniProt Q8TF46)	-0.0102	0.234
DNM1L_O00429_505_HPDFADACGLMNNNIEEQRR (UniProt O00429)	-0.479	-0.649
DNMT1_P26358_1485_ACDPAAR (UniProt P26358)	0.112	0.376
DHX15_O43143_644_QNHESVQWCYDNFINYR (UniProt O43143)	0.24	0.295
DNAJA1_P31689_180_IHQIGPGMVQQIQSVCMECQGHGER (UniProt P31689)	-0.0792	-0.0611
DNM2_P50570_86_TEHAEFLHCK (UniProt P50570)	-0.165	0.129
DNMT1_P26358_1339_ACQLSVVVDDK (UniProt P26358)	0.0583	-0.641
DNAJC13_O75165_1432_ESPLLPAATELAFHTVNCSALNAEELRR (UniProt O75165)	0.104	0.0448
DIMT1_Q9UNQ2_150_CAILMFQR (UniProt Q9UNQ2)	-0.227	0.381
DISC1_Q9NRI5_844_EAAASCMTAGVHEAQA (UniProt Q9NRI5)	-0.223	-0.323
DIAPH2_O60879_775_NEYDDLCEPEQFGVVMSSVK (UniProt O60879)	-0.117	0.261
DNAJC21_Q5F1R6_3_CHYEALGVR (UniProt Q5F1R6)	-0.00951	-0.0917
DIAPH1_O60610_1227_KAGCAVTSLLASELTK (UniProt O60610)	-0.218	-1.27
DNAJA1_P31689_153_KGAVECCPNCR (UniProt P31689)	0.248	-0.168
DIP2A_Q14689_934_FLEGTLHPCNVLMCPHTCVTNLPK (UniProt Q14689)	0.192	0.136
DNAAF2_Q9NVR5_701_EYIEHCNTPTTDSDSSIAVK (UniProt Q9NVR5)	-0.224	-0.197
DNAJA1_P31689_134_NVICDK (UniProt P31689)	0.105	-0.342
DNAJC10_Q8IXB1_161_EFDAAVNSGELWFVNFYSPGCSHCHDLAPTWR (UniProt Q8IXB1)	0.269	0.235
DNM1L_O00429_470_LHDAIVEVVTCLLRK (UniProt O00429)	0.0188	-0.542
